No constants are given. Whether binding was seen depends on the method and setting. Binding seen in cells or lysates may run through a third protein. Some results given as binding are weak or reduced against the parent protein; the word gives no strength. For some assays here: Tags and fused reporters may be left off the sequences shown.

Amino acid sequences for entries named in this document (tags omitted). A change or cut given only in a name is not applied to a line headed by its entry.
UniProt P32754: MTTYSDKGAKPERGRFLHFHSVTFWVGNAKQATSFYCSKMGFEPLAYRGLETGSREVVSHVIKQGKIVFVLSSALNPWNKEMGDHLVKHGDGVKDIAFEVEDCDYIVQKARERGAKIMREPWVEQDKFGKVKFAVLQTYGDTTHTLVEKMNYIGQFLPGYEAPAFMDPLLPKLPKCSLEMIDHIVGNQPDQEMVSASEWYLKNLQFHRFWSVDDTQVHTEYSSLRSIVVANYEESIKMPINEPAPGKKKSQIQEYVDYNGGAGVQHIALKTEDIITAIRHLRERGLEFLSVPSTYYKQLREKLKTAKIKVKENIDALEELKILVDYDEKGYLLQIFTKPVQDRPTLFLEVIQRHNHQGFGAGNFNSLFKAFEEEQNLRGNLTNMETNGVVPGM
UniProt P49429: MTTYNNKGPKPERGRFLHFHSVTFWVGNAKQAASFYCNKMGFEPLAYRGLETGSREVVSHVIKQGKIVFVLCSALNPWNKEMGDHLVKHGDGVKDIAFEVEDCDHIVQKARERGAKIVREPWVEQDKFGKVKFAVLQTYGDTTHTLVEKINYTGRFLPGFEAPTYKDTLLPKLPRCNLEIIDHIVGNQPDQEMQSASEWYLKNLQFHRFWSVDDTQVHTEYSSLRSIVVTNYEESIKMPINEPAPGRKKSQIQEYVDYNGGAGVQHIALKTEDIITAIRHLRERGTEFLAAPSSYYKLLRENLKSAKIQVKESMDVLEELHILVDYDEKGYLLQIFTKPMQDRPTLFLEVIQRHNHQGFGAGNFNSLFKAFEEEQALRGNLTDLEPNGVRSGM
UniProt Q9BYT3: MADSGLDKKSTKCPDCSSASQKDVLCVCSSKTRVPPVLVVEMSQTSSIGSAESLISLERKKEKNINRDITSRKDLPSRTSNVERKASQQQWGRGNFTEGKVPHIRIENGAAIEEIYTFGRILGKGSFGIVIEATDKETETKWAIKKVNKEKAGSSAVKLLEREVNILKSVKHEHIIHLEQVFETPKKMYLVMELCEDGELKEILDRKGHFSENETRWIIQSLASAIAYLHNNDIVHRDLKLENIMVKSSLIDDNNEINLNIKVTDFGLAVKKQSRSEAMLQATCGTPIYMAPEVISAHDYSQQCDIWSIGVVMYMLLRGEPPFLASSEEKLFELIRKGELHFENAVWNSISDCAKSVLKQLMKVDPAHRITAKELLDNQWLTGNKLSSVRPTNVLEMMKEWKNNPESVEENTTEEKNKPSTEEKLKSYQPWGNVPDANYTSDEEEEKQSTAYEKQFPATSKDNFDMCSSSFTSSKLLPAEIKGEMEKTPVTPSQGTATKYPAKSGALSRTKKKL
UniProt Q924X7: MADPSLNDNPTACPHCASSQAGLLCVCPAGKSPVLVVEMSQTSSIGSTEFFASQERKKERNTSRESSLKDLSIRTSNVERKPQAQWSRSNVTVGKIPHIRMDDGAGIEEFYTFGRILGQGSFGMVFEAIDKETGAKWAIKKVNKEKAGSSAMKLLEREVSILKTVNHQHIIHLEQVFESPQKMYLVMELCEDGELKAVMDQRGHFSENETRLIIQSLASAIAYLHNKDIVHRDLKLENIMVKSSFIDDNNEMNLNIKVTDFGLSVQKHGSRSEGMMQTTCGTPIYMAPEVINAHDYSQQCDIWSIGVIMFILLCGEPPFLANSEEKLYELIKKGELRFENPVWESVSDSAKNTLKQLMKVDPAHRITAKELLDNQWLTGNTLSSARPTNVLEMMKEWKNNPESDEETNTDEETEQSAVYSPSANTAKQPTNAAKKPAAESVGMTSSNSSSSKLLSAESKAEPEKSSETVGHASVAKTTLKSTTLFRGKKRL

This passage reports binding results from article PMC6753076.

For assay [1], the target named is T1, Flag-PELI1 (CMV-Flag-Peli1), wild type (human) (UniProt Q96FA3).
T1 sequence: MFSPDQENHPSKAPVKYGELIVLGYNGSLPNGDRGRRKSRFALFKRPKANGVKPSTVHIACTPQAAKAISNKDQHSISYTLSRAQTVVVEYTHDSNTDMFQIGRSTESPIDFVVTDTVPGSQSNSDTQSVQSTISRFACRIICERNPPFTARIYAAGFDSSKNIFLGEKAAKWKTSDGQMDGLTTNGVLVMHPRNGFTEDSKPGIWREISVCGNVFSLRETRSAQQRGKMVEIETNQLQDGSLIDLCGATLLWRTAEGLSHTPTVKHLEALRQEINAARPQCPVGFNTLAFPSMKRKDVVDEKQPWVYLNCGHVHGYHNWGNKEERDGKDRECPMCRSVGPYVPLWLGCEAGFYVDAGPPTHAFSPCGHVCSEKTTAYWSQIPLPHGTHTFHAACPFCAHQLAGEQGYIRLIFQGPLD
Briefly: co-IP; HEK293T transfected with the indicated plasmids; immunoprecipitation with an anti-Flag antibody.

The target of assay [2] is 4-hydroxyphenylpyruvic acid dioxygenase (HPD), endogenous human (human (endogenous in HEK293T and LO2)) (UniProt P32754). Nature of the assay: co-IP; LO2 cell lysates, immunoprecipitation with an anti-HPD antibody; also cells with Ttc36 shRNA or stably expressed Flag-TTC36.
Assay [3] addresses T2, PELI1 E3 ubiquitin ligase, endogenous human (human (endogenous in HEK293T and LO2)) (UniProt Q96FA3).
T2 sequence: T1 sequence
Briefly: co-IP; LO2 cells with Ttc36 shRNA#1, with or without RNAi-resistant TTC36; immunoprecipitation with an anti-PELI1 antibody; endogenous proteins.

Assay [4] has as its target T3, TTC36, endogenous mouse (mouse (endogenous in primary hepatocytes)) (UniProt Q8VBW8).
T3 sequence: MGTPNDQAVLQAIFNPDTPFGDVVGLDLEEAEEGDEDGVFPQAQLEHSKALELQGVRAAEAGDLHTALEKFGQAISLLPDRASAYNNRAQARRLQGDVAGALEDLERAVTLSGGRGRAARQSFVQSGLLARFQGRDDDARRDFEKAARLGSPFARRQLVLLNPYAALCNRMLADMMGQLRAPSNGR
Briefly: co-IP; lysates of primary hepatocytes of wild type and Ttc36-/- C57BL/6 mice; immunoprecipitation with an anti-TTC36 antibody; lysis buffer 50 mM Tris-HCl pH 7.5, 0.1% SDS, 1% Triton X-100, 150 mM NaCl; overnight at 4 °C.

In assay [5] the target is HPD, endogenous mouse (mouse (endogenous in primary hepatocytes)) (UniProt P49429). Nature of the assay: co-IP; WT or Ttc36-/- mouse primary hepatocytes, MG-132 (10 μM) 12 h; immunoprecipitation with an anti-HPD antibody.

On to “His-HPD (pcDNA3.1-His/V5-Hpd), wild type (from UniProt P32754-1 1-393)”, for which the binding entry in assay [1] is reported as “binds”.

In the case of “serine/threonine kinase 33 (STK33), endogenous human (from UniProt Q9BYT3 1-514)”, the binding result in assay [2] is recorded as “binds”.

In the case of “4-hydroxyphenylpyruvic acid dioxygenase (HPD), endogenous human (from UniProt P32754 1-393)”, the binding entry in assay [3] was “binds”.

“HPD, endogenous mouse (from UniProt P49429 1-393)”: in assay [4], the binding result is on record as “binds”.

Consider “STK33, endogenous mouse (from UniProt Q924X7 1-491)”, for which the binding entry in assay [5] is on record as “binds”.
